Test system: patient
Conditions: lidocaine about 45 mg/kg to about 55 mg/kg of body weight in tumescent anesthetizing solution; multiple implementations of the process

CCN(CC)CC(=O)Nc1c(C)cccc1C [lidocaine]
unwanted negative reactions on a patient / lidocaine toxicity: does not usually have any unwanted negative reactions on a patient, nor is it common for lidocaine toxicity to occur

Reference: patent publication US10624840B2, “Method for performing cosmetic surgical procedures using tumescent anesthesia and oral sedation” (priority 2017, dated 2020)
